Assay results reported in doi:10.1101/133777.
Results are given in words; binding and its absence hold for the method and conditions named. Some results given as binding are weak or reduced against the parent protein; the word gives no strength.

Sequences of proteins named here, by UniProt entry; tags and fusion partners are left off.
UniProt P63208: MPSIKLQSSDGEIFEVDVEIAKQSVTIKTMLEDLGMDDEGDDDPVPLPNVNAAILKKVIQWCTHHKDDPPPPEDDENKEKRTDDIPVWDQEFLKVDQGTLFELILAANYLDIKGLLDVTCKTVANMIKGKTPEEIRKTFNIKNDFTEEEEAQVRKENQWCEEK

Biological target: T1, BioEase-FBXL5 (UniProt Q9UKA1)
T1 sequence (chain, biotin (biotinylated FBXL5, BioEase tag)): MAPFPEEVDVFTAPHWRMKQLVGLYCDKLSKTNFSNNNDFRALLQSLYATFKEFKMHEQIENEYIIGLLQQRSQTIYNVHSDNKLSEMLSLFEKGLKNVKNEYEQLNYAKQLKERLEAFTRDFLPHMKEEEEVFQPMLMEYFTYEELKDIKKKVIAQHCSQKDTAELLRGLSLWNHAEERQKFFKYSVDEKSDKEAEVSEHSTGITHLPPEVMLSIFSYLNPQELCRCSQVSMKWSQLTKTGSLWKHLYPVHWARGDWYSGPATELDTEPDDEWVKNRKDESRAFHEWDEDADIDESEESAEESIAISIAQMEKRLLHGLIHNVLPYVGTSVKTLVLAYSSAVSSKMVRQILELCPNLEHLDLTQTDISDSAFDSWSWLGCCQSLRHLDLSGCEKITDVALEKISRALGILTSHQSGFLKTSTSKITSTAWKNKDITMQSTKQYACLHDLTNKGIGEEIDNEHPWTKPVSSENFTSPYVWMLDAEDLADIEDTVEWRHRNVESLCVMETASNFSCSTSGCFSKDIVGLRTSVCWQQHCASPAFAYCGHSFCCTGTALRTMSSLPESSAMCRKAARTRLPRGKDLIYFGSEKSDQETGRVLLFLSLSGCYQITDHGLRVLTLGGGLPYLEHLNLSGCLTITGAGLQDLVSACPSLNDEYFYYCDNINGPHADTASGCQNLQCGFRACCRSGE
Assay: pull-down

Question: How did the binding turn out when “3HA-3FLAG-tagged SKP1 (from UniProt P63208 1-163)” was run?
Answer: binds
